From the supplement of paper PMC9135407 come the findings set out here.

The structures appear in SMILES notation. Where “and” joins values, the source holds several entries; their conditions need not be identical. Equal entries are not always repeated. Structures can show the parent of a compound that is named as a salt. ± gives the standard deviation of the averaged measurements. This is one part of the list. Plates or batches differ in their baseline, so values are only roughly comparable.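 Primary human stellate myofibroblasts activated in culture; inactivation shown by regained lipid droplets. Readout: fraction of Hoechst-counted cells exceeding a per-plate Bodipy threshold, duplicate wells, each plate with DMSO negative and nortriptyline positive controls. Hits: control-normalized score beyond the plate's top-tenth-percentile nortriptyline wells, or among its three best wells. Final well concentrations unstated.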

This test relates to primary human hepatic stellate cells (donor 1). Put plainly: percent Bodipy-positive cells; higher = more lipid droplet accumulation. Conditions: 48 h.
Setting [1] is: library stock concentration: 3.33 mM.
Setting [2] is: library stock concentration: 10 mM.
The mark [3] stands for this setting: library stock concentration: 2 mM.
Setting [4] is: library stock concentration: 80 uM.
Where [5] appears, read: library stock concentration: 400 uM.

With `Clc1cccc(Cl)c1NC1=NCCN1` [Clonidine], the “percent Bodipy-positive cells” value (library stock concentration: 21.7 mM) amounted to 32.7 ± 1.8%.

For the molecule `Clc1cccc(Cl)c1NC1=NCCN1` [Clonidine hydrochloride], the “percent Bodipy-positive cells” value came to 29.5 ± 9.1%. Under “library stock concentration: 7.5 mM”, the “percent Bodipy-positive cells” value turned out to be 1.93 ± 1%. With `Clc1cccc(Cl)c1NC1=NCCN1` [Clonidine HCl], the “percent Bodipy-positive cells” value by setting is: under setting [1], 7.8 ± 6.3%; (library stock concentration: 8.7 mM) 10.9 ± 0.053%; under setting [2], 11.1 ± 1.9%.

Consider `Clc1cccc(Cl)c1NC1=NCCN1`, for which the “percent Bodipy-positive cells” value under setting [2] worked out at 13.48 ± 0.014%. For `CN(C)S(=O)(=O)c1ccc2c(c1)/C(=C/c1cc3c([nH]1)CCCC3)C(=O)N2`, the “percent Bodipy-positive cells” value under setting [1] was determined as 69.5 ± 6.8%. In the case of `O=C1[C@H]2CCCC[C@H]2C(=O)N1CCCCN1CCN(c2nsc3ccccc23)CC1`, under setting [2], the “percent Bodipy-positive cells” value came to 35.8 ± 3%. As for `C[C@]12C=CC(=O)N[C@@H]1CC[C@@H]1[C@@H]2CC[C@]2(C)[C@@H](C(=O)Nc3cc(C(F)(F)F)ccc3C(F)(F)F)CC[C@@H]12` [Dutasteride], the “percent Bodipy-positive cells” value runs as follows: under setting [1], 14.5 ± 2.5%; under setting [2], 72.2 ± 13%. `N=C(N)NCCCCNC(=N)N` [Arcaine sulfate]: the “percent Bodipy-positive cells” value turned out to be 8.36 ± 0.86%. In addition, under setting [2], the “percent Bodipy-positive cells” value came out at 45.9 ± 8%. On to `CCN(CC)c1ccc(/C=N/NC(=O)c2ccc(O)cc2)cc1`, for which, under setting [2], the “percent Bodipy-positive cells” value amounted to 6.09 ± 0.45%. As for `Cl.Nc1ccc(C(=O)Nc2cccc(-c3nc(N4CCOCC4)c4oc5ncccc5c4n3)c2)cn1`, the “percent Bodipy-positive cells” value worked out at 98.25 ± 0.85% under setting [3] and 81.6 ± 1.8% under setting [2]. Take `CCCNC(=O)NS(=O)(=O)c1ccc(Cl)cc1` [Chlorpropamide]: the “percent Bodipy-positive cells” value is 23.4 ± 16%. Further, the “percent Bodipy-positive cells” value under setting [1] worked out at 15.2 ± 11%. Further, the “percent Bodipy-positive cells” value (library stock concentration: 7.2 mM) amounted to 2.15 ± 0.63%. Consider `CCCNC(=O)NS(=O)(=O)c1ccc(Cl)cc1`, for which, under setting [2], the “percent Bodipy-positive cells” value is 24.5 ± 5.5%.

As for `CCN(CC)C(C)CN1c2ccccc2Sc2ccccc21` (configuration not stated) [Ethopropazine hydrochloride], the “percent Bodipy-positive cells” value is 47.2 ± 2.3%. Moreover, under “library stock concentration: 5.7 mM”, the “percent Bodipy-positive cells” value turned out to be 45.6 ± 8.8%. As for `CC(=O)O[C@]1(C(C)=O)CC[C@H]2[C@@H]3C=C(Cl)C4=CC(=O)CC[C@]4(C)[C@H]3CC[C@@]21C` [Chlormadinone acetate], the “percent Bodipy-positive cells” value by setting is: (library stock concentration: 4.5 mM) 11.9 ± 1.1%; (library stock concentration: 4.9 mM) 17.5 ± 1.4%. Consider `CN1CCN(CCc2ccc(Cl)c(Cl)c2)CC1` [BD 1063 dihydrochloride], for which the “percent Bodipy-positive cells” value under setting [2] is 46.2 ± 3.4%. Same read-out and setting: next, `Cc1cc(O)c(C(=O)N[C@@H](C(=O)N[C@@H]2C(=O)N3C(C(=O)O)=C(CSc4nnnn4C)CS[C@H]23)c2ccc(O)cc2)cn1`: 36.8 ± 8.4%. Consider `COc1ccc(-c2nc(N3CCOCC3)c3sc(CN(C)c4ncc(C(=O)NO)cn4)cc3n2)cn1`, for which the “percent Bodipy-positive cells” value reads like this: under setting [4], 58.2 ± 2.2%; under setting [5], 56.08 ± 0.5%; under setting [3], 53.5 ± 3.4%; under setting [1], 45.1 ± 3.1%; under setting [2], 60.8% and 49.5%. In the case of `COc1cc(-c2ncn(/C=C\C(=O)OC(C)C)n2)cc(C(F)(F)F)c1`, the “percent Bodipy-positive cells” value was 40 ± 9.1% under setting [1] and 64.6 ± 23% under setting [2]. With `Cc1cnc(Nc2ccc(OCCN3CCCC3)cc2)nc1Nc1cccc(S(=O)(=O)NC(C)(C)C)c1`, the “percent Bodipy-positive cells” value was 24 ± 5.3% under setting [4]; 37.2 ± 7.3% under setting [5]; 71.8 ± 3.7% under setting [3]; 90 ± 2.9% under setting [1]; 98.8% and 100% under setting [2]. Consider `CNCCCN1c2ccccc2CCc2ccccc21.Cl` [Desipramine hydrochloride], for which the “percent Bodipy-positive cells” value was 85.3 ± 3.5%. On to `Cn1ncnc1[C@H]1c2n[nH]c(=O)c3cc(F)cc(c23)N[C@@H]1c1ccc(F)cc1`, for which the “percent Bodipy-positive cells” value worked out at 12.3 ± 2.7% under setting [1] and 21.3 ± 9.5% under setting [2]. With `C=CCN(C)CCCCCCOc1ccc(C(=O)c2ccc(Br)cc2)c(F)c1`, the “percent Bodipy-positive cells” value (library stock concentration: 1 mM) came out at 28.4 ± 12%. Regarding `CC=CC(=O)N(CC)c1ccccc1C` [Crotamiton], the “percent Bodipy-positive cells” value came to 11.4 ± 6.1%. Moreover, the “percent Bodipy-positive cells” value under setting [2] was 32.4 ± 5.6%. `CC1CC2C3CCC4=CC(=O)C=CC4(C)C3(F)C(O)CC2(C)C1C(=O)CO` (configuration not stated): the “percent Bodipy-positive cells” value under setting [2] worked out at 27.7 ± 6.4%.

For the molecule `CNCCc1ccccn1` [Betahistine mesylate], the “percent Bodipy-positive cells” value is 39.1 ± 2.3%.

`CNCCc1ccccn1` [Betahistine 2HCl]: the “percent Bodipy-positive cells” value was 13.2 ± 2.1% under setting [1] and 26.3 ± 4.4% under setting [2]. Turning to `CNCCc1ccccn1` [Betahistine hydrochloride], for the setting “library stock concentration: 9.6 mM”, the “percent Bodipy-positive cells” value worked out at 20.2 ± 2.8%. As for `CC(C)Oc1ccc(-c2cnc3c(-c4ccnc5ccccc45)cnn3c2)cc1`, the “percent Bodipy-positive cells” value by setting is: under setting [1], 47.4 ± 11%; under setting [2], 33 ± 18%.

On to `c1cn2cc(-c3ccc4cn[nH]c4c3)nc(Nc3ccc(N4CCOCC4)cc3)c2n1`, for which the “percent Bodipy-positive cells” value was found to be 97.8 ± 1.8% under setting [1] and 99.06 ± 0.27% under setting [2]. `CC1=C(C)C(=O)C(C(CCCCCC(=O)O)c2ccccc2)=C(C)C1=O` (configuration not stated): the “percent Bodipy-positive cells” value under setting [2] was found to be 38.4 ± 11%. Still for that read-out and setting: next, `NCCCCCC(=O)O` [6-aminocaproic acid]: 9.69 ± 1.9%. Consider `NCCCCCC(=O)O` [Aminocaproic acid], for which the “percent Bodipy-positive cells” value is 7.66 ± 3.1%. Further, for the setting “library stock concentration: 15.2 mM”, the “percent Bodipy-positive cells” value is 2.87 ± 1.6%. `NCCCCCC(=O)O` [?6-??-?Aminocaproic acid]: the “percent Bodipy-positive cells” value under setting [1] was 8.6 ± 2.8% and the “percent Bodipy-positive cells” value under setting [2] was found to be 13.3 ± 0.18%. For the molecule `NCCCCCC(=O)O` [6-Aminohexanoic acid], the “percent Bodipy-positive cells” value under setting [2] was 52.7 ± 3.6%. For the molecule `CC(C)CCNC(=O)[C@H](CC(C)C)NC(=O)[C@H]1O[C@@H]1C(=O)O` [Loxistatin Acid (E-64C)], the “percent Bodipy-positive cells” value is, setting by setting: under setting [1], 22.9 ± 8.9%; under setting [2], 30.5 ± 2.7%.
